At least one structure is not confirmed: it was looked up by name or label, or the drawing left a doubt.
Columns and labels:
Format in all cases: in vivo, C57BL/6J mice
[1] = system: high-fat diet-fed C57BL/6J mouse; assay: Blood glucose levels and biochemical parameters in HFD-fed mice; settings: AnK 10, 20, 40, Feno 250, Metf 300 mg/kg/day, vs HF group
Procedure: Animal studies were performed and approved under the guidelines of the Institutional Animal Care and Use Committee in Taiwan (12 Mar. 2015). […] After acclimatization for one week, all of the mice were randomly assigned into a control (CON) group and a high-fat diet (HFD) group. For the following 12 weeks, the CON group (n=9) received a control diet or a low-fat diet (Diet 12450B, Research Diets, Inc., New Brunswick, N.J., USA), while the HFD group (n=54) received a high-fat diet (Diet 12451, Research Diets, New Brunswick, N.J., USA). […] After HFD feeding for 8 weeks, the HFD group was randomly subdivided into six groups (n=9 per group) receiving different treatments and fed on HFD. […] The HF+AnK1, HF+AnK2, and HF+AnK3 groups are collectively termed AnK-treated HFD groups in the following examples. The CON mice were administered vehicle. All treatments were administered via oral gavage once daily. After administration for 4 weeks, all mice were fasted 12 hours, and blood was collected from the retro-orbital sinus under ether anesthesia. At the end of the experiment, the mice were sacrificed via carbon dioxide inhalation. Liver, adipose tissue, and skeletal muscle were collected and immediately stored at −80° C. for target gene analysis. A portion of the blood samples obtained from the retro-orbital sinus of fasted mice were immediately used to measure blood glucose levels using Sidekick glucose analyzer (YSI 1500, YSI Incorporated, Yellow Springs, USA) according to the glucose oxidase method. Heparin (30 units/mL, Sigma) was added into other portions of the blood samples. Plasma samples for the following analysis were prepared from these blood samples via centrifugation at 1600 g for 15 minutes at 4° C., followed by plasma separation within 30 minutes. Blood levels of triglycerides (TG), total cholesterol (TC), and free fatty acids (FFA) were determined using commercial assay kits in accordance with manufacturer's directions (Triglycerides-E test, Cholesterol-E test and FFA-C test, Wako Pure Chemical, Osaka, Japan). Blood levels of insulin, leptin, and adiponectin were measured by enzyme-linked immunosorbent assay (mouse insulin ELISA kit, Mercodia, Uppsala, Sweden; mouse leptin ELISA kit, Morinaga, Yokohama, Japan; mouse adiponectin ELISA kit, Crystal Chem International, Downers Grove, Ill., USA).

[2] = system: G6Pase; assay: Liver mRNA by semi-quantitative RT-PCR: G6Pase; settings: HFD-fed mice, oral gavage once daily 4 weeks, AnK 10, 20, 40, Feno 250, Metf 300 mg/kg/day, vs HF group
Text: (§1) The 4-week old male C57BL/6J mice (total amount n=63) were obtained from the National Laboratory Animal Center (Taipei, Taiwan). After acclimatization for one week, all of the mice were randomly assigned into a control (CON) group and a high-fat diet (HFD) group. […] After HFD feeding for 8 weeks, the HFD group was randomly subdivided into six groups (n=9 per group) receiving different treatments and fed on HFD. […] The HF+AnK1, HF+AnK2, and HF+AnK3 groups are collectively termed AnK-treated HFD groups in the following examples. The CON mice were administered vehicle. All treatments were administered via oral gavage once daily. After administration for 4 weeks, all mice were fasted 12 hours, and blood was collected from the retro-orbital sinus under ether anesthesia. […]
(§2) Total RNA from liver tissue of mice was isolated with a Trizol Reagent (Molecular Research Center, Inc., Cincinnati, Ohio, USA) according to the manufacturer's instructions. The integrity of the extracted total RNA was examined by 2% agarose gel electrophoresis, and the RNA concentration was determined by the ultraviolet (UV) light absorbency at 260 nm and 280 nm (Spectrophotometer U-2800A, Hitachi). […]
(§3) Levels of mRNA of target genes were quantified by semi-quantitative reverse transcription polymerase chain reaction (RT-PCR). […] PCR products were analyzed by 2% agarose gel and stained with ethidium bromide.

[3] = system: DGAT2; assay: Liver mRNA by semi-quantitative RT-PCR: DGAT2; settings: HFD-fed mice, oral gavage once daily 4 weeks, AnK 10, 20, 40, Feno 250, Metf 300 mg/kg/day, vs HF group
Text: as §1, §2, §3

[4] = system: SREBP1c; assay: Liver mRNA by semi-quantitative RT-PCR: SREBP1c; settings: HFD-fed mice, oral gavage once daily 4 weeks, AnK 10, 20, 40, Feno 250, Metf 300 mg/kg/day, vs HF group
Text: as §1, §2, §3

[5] = system: aP2; assay: Liver mRNA by semi-quantitative RT-PCR: aP2; settings: HFD-fed mice, oral gavage once daily 4 weeks, AnK 10, 20, 40, Feno 250, Metf 300 mg/kg/day, vs HF group
Text: as §1, §2, §3

[6] = system: apoCIII; assay: Liver mRNA by semi-quantitative RT-PCR: apoCIII; settings: HFD-fed mice, oral gavage once daily 4 weeks, AnK 10, 20, 40, Feno 250, Metf 300 mg/kg/day, vs HF group
Text: as §1, §2, §3

[7] = system: SREBP2; assay: Liver mRNA by semi-quantitative RT-PCR: SREBP2; settings: HFD-fed mice, oral gavage once daily 4 weeks, AnK 10, 20, 40, Feno 250, Metf 300 mg/kg/day, vs HF group
Text: as §1, §2, §3

[8] = system: phospho-AMPK (Thr^172)/total-AMPK; assay: Western blotting of phospho-AMPK/total-AMPK in skeletal muscle and liver; settings: HFD-induced reduction, AnK 10, 20, 40, Feno 250, Metf 300 mg/kg/day, vs HF group
Text: as §1, with “anesthesia. At the end of the experiment, the mice were sacrificed via carbon dioxide inhalation.” for “anesthesia.”
(§4) About 0.1 g of liver tissue, skeletal muscle, or adipose tissue was used for the homogenate samples. […] The protein concentration in supernatant was determined with a BCA protein assay kit (Thermo Scientific, Rockford, Ill., USA). […] Immunoreactive bands were detected with ECL reagent kit (GE Healthcare BioSciences, Buckinghamshire, UK). The intensity of Western blot signals was analyzed using AlphaEase FC software (Alpha Innotech Corporation, Randburg, South Africa). […]

[9] = system: phospho-Akt (Ser^473)/total-Akt; assay: Western blotting of phospho-Akt/total-Akt in skeletal muscle and liver; settings: HFD-induced reduction, AnK 10, 20, 40, Feno 250, Metf 300 mg/kg/day, vs HF group
Text: as §1, with “anesthesia. At the end of the experiment, the mice were sacrificed via carbon dioxide inhalation.” for “anesthesia.”
as §4

[10] = system: FAS; assay: Western blotting of FAS in liver and adipose tissue; settings: HFD-fed mice, AnK 10, 20, 40, Feno 250, Metf 300 mg/kg/day, vs HF group
Text: as §1, with “anesthesia. At the end of the experiment, the mice were sacrificed via carbon dioxide inhalation.” for “anesthesia.”
as §4

CC(C)OC(=O)C(C)(C)Oc1ccc(C(=O)c2ccc(Cl)cc2)cc1 [Feno, fenofibrate]
significantly reduced: blood glucose levels ([1]; fasting, week 12, oral gavage once daily 4 weeks) | expression levels of FAS (protein) ([10]; adipose tissue)
significantly decreased: mRNA levels of G6Pase [2] | mRNA levels of DGAT2 [3] | mRNA levels of SREBP1c [4] | mRNA levels of aP2 [5] | mRNA levels of apoCIII [6] | mRNA levels of SREBP2 [7]
significantly reversed: expression levels of phospho-AMPK/total-AMPK ([8]; liver) | expression levels of phospho-AMPK/total-AMPK ([8]; skeletal muscle) | expression levels of phosphor-Akt/total-Akt ([9]; liver) | expression levels of phosphor-Akt/total-Akt ([9]; skeletal muscle)
markedly enhanced: blood adiponectin levels ([1]; oral gavage once daily 4 weeks)
effectively reduced: levels of blood insulin ([1]; oral gavage once daily 4 weeks) | levels of blood leptin ([1]; oral gavage once daily 4 weeks)
decreased: circulating free fatty acid (FFA) levels ([1]; oral gavage once daily 4 weeks) | circulating total cholesterol (TC) levels ([1]; oral gavage once daily 4 weeks) | circulating triglycerides (TG) levels ([1]; oral gavage once daily 4 weeks) | FAS expression levels (protein) ([10]; liver)

Source: patent US10124012B2, “Method for treatment of hyperglycemia and hyperlipidemia” (priority 2016, dated 2018)
